Values from PubChem BioAssay AID1224830 (NIAID, 2016)
This is one part, drawn at random, of about 18,000 deposited reagents. About 2,900 of all reagents (16%) count as active. 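Calls are made per well; low scores hint the gene aids the LPS response, high scores that it dampens it.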 Entries without a mark were called inactive. Repeated entries: four replicate wells of each siRNA pool.

Assay: 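Genes whose knock-down alters the TNF-alpha reporter response to LPS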 (primary screen)
Cell system: human THP-1 monocytic leukaemia cells, TNF dual-luciferase reporter clone, PMA-differentiated to macrophage-like cells
Reagent: siRNA pool against human genes, 50 nM
Time to read-out: LPS for 4 h, given about 3 days after siRNA transfection
Conditions: bacterial LPS (TLR4 ligand), 10 ng/ml
Read-out: 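Ratio of firefly to renilla light, scaled to the plate median and expressed as a robust z-score per replicate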
Reading the numbers: TNF reporter robust z-score: higher = stronger TNF reporter response to LPS
Active means: 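Each well counts as active if its z-score is over 2.8 or under -1.5; controls are left without a call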

gene | TNF reporter robust z-score
SGCE (sarcoglycan epsilon) | 0.16
SGCE (sarcoglycan epsilon) | -0.29
SGCE (sarcoglycan epsilon) | -0.67
SGCE (sarcoglycan epsilon) | -1.27
MAGEB3 (MAGE family member B3) | 0.94
MAGEB3 (MAGE family member B3) | 1.49
MAGEB3 (MAGE family member B3) | 0.03
MAGEB3 (MAGE family member B3) | 1
CASP7 (caspase 7) | -0.75
CASP7 (caspase 7) | 0.66
CASP7 (caspase 7) | -0.8
CASP7 (caspase 7) | -0.16
TESK2 (testis associated actin remodelling kinase 2) | -1.7 (active)
TESK2 (testis associated actin remodelling kinase 2) | -1.43
TESK2 (testis associated actin remodelling kinase 2) | -0.16
TESK2 (testis associated actin remodelling kinase 2) | 0.04
GJA10 (gap junction protein alpha 10) | 0.85
GJA10 (gap junction protein alpha 10) | 1.95
GJA10 (gap junction protein alpha 10) | 1.84
GJA10 (gap junction protein alpha 10) | 1.92

Entries above whose gene name starts with M or m:
gene | TNF reporter robust z-score
MAGEB3 (MAGE family member B3) | 0.94
MAGEB3 (MAGE family member B3) | 1.49
MAGEB3 (MAGE family member B3) | 0.03
MAGEB3 (MAGE family member B3) | 1

More records follow.
gene | TNF reporter robust z-score
TNC (tenascin C) | -1.23
TNC (tenascin C) | -0.87
TNC (tenascin C) | -0.88
TNC (tenascin C) | -1.05
ARL3 (ARF like GTPase 3) | -0.79
ARL3 (ARF like GTPase 3) | 0.26
ARL3 (ARF like GTPase 3) | 0.28
ARL3 (ARF like GTPase 3) | -0.31
ISG15 (ISG15 ubiquitin like modifier) | -0.71
ISG15 (ISG15 ubiquitin like modifier) | -0.8
ISG15 (ISG15 ubiquitin like modifier) | -0.94
ISG15 (ISG15 ubiquitin like modifier) | -0.95
PTBP1 (polypyrimidine tract binding protein 1) | -1.56 (active)
PTBP1 (polypyrimidine tract binding protein 1) | -1.25
PTBP1 (polypyrimidine tract binding protein 1) | -1.11
PTBP1 (polypyrimidine tract binding protein 1) | -0.87
ALDH1L1 (aldehyde dehydrogenase 1 family member L1) | -0.22
ALDH1L1 (aldehyde dehydrogenase 1 family member L1) | -1.26
ALDH1L1 (aldehyde dehydrogenase 1 family member L1) | -1.11
ALDH1L1 (aldehyde dehydrogenase 1 family member L1) | -0.19
RPS28 (ribosomal protein S28) | -0.54
RPS28 (ribosomal protein S28) | -1.3
RPS28 (ribosomal protein S28) | -0.69
RPS28 (ribosomal protein S28) | -0.35
AK2 (adenylate kinase 2) | -0.77
AK2 (adenylate kinase 2) | -0.2
AK2 (adenylate kinase 2) | -0.61
AK2 (adenylate kinase 2) | 0.49
